From IntAct's records for PubMed 21326211 come the findings set out here.

To fix the notation:
B1: Proline-, glutamic acid- and leucine-rich protein 1 (Homo sapiens), Q8IZL8 (parent)
chain: MAAAVLSGPSAGSAAGVPGGTGGLSAVSSGPRLRLLLLESVSGLLQPRTGSAVAPVHPPNRSAPHLPGLMCLLRLHGSVGGAQNLSALGALVSLSNARLSSIKTRFEGLCLLSLLVGESPTELFQQHCVSWLRSIQQVLQTQDPPATMELAVAVLRDLLRYAAQLPALFRDISMNHLPGLLTSLLGLRPECEQSALEGMKACMTYFPRACGSLKGKLASFFLSRVDALSPQLQQLACECYSRLPSLGAGFSQGLKHTESWEQELHSLLASLHTLLGALYEGAETAPVQNEGPGVEMLLSSEDGDAHVLLQLRQRFSGLARCLGLMLSSEFGAPVSVPVQEILDFICRTLSVSSKNISLHGDGPLRLLLLPSIHLEALDLLSALILACGSRLLRFGILIGRLLPQVLNSWSIGRDSLSPGQERPYSTVRTKVYAILELWVQVCGASAGMLQGGASGEALLTHLLSDISPPADALKLRSPRGSPDGSLQTGKPSAPKKLKLDVGEAMAPPSHRKGDSNANSDVCAAALRGLSRTILMCGPLIKEETHRRLHDLVLPLVMGVQQGEVLGSSPYTSSRCRRELYCLLLALLLAPSPRCPPPLACALQAFSLGQREDSLEVSSFCSEALVTCAALTHPRVPPLQPMGPTCPTPAPVPPPEAPSPFRAPPFHPPGPMPSVGSMPSAGPMPSAGPMPSAGPVPSARPGPPTTANHLGLSVPGLVSVPPRLLPGPENHRAGSNEDPILAPSGTPPPTIPPDETFGGRVPRPAFVHYDKEEASDVEISLESDSDDSVVIVPEGLPPLPPPPPSGATPPPIAPTGPPTASPPVPAKEEPEELPAAPGPLPPPPPPPPPVPGPVTLPPPQLVPEGTPGGGGPPALEEDLTVININSSDEEEEEEEEEEEEEEEEEEEEEDFEEEEEDEEEYFEEEEEEEEEFEEEFEEEEGELEEEEEEEDEEEEEELEEVEDLEFGTAGGEVEEGAPPPPTLPPALPPPESPPKVQPEPEPEPGLLLEVEEPGTEEERGADTAPTLAPEALPSQGEVEREGESPAAGPPPQELVEEEPSAPPTLLEEETEDGSDKVQPPPETPAEEEMETETEAEALQEKEQDDTAAMLADFIDCPPDDEKPPPPTEPDS

Variants of B1 are the subject of one assay. Particulars: with sumo2_human SUMO2, P61956.
On to I881A, for which the “effect of a mutation on the interaction” value is listed as “disrupting interaction”.

For V880A, the “effect of a mutation on the interaction” value was “disrupting interaction”.

The next assay covers variants of B1. Particulars: with sumo2_human SUMO2, P61956. This is another data set of the same source.
For I790A, the “effect of a mutation on the interaction” value is on record as “disrupting interaction”.

On to V791A, for which the “effect of a mutation on the interaction” value was “disrupting interaction”.

Variants of B1 are the subject of the next assay. Particulars: with sumo2_human SUMO2, P61956. The source holds these as a separate data set.
For the variant I790A, the “effect of a mutation on the interaction” value is on record as “decreasing interaction”.

With V791A, the “effect of a mutation on the interaction” value is “decreasing interaction”.
